Measured values from PMC11335290.
These are yes or no findings as the source states them, for the method shown. In cells and extracts the contact can be indirect. Some binding calls cover weakened binding; strength is not graded here.

Protein sequences, listed by entry. Tags and fused reporters are not part of them.
UniProt Q15717: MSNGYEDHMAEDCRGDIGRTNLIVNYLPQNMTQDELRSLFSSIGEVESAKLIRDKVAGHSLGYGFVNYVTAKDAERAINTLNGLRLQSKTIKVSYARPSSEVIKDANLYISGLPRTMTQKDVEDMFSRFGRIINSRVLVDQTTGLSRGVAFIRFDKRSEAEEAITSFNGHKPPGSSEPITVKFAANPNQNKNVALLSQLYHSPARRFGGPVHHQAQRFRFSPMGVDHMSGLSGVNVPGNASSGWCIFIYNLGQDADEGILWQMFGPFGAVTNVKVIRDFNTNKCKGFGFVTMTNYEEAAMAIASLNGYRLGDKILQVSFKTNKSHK
UniProt O14980: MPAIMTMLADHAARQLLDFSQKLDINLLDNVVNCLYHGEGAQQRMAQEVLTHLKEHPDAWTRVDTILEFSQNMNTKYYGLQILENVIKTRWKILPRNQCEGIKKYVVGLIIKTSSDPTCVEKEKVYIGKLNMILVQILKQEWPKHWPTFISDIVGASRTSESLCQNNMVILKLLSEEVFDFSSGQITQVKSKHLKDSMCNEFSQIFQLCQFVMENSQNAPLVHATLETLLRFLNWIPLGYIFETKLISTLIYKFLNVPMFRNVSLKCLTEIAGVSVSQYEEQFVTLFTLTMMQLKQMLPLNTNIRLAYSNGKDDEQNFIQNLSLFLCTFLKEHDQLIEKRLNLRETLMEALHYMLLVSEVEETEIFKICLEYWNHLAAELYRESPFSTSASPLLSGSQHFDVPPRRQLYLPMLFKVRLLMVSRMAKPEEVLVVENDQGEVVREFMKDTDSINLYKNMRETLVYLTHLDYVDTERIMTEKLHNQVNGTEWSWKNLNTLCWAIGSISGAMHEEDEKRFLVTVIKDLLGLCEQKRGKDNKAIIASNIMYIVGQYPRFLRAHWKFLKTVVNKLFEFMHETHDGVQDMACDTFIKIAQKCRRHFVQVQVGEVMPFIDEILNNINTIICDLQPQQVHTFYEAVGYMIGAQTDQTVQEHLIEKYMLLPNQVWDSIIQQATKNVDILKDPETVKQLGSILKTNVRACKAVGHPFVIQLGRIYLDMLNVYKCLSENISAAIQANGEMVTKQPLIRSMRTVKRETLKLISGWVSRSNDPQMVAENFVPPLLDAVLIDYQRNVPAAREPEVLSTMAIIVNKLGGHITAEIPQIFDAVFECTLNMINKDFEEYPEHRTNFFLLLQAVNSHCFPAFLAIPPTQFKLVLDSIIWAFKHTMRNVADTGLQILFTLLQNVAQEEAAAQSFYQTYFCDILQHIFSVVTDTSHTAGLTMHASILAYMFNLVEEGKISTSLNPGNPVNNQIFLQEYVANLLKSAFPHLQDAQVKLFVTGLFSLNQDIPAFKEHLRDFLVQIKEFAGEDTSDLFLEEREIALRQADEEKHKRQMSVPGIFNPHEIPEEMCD

Target: human antigen R (HuR)/embryonic lethal abnormal vision-like (ELAVL1), endogenous (human (endogenous in HEK293)) (UniProt Q15717)
Test: co-IP; endogenous proteins of HEK293 cells; lysate incubated with anti-HuR or anti-PARP1 antibody (3 μg) overnight at 4 °C, protein G agarose 3 h, immunoblot; cells mock treated or TNFα 1 h, ± Olaparib or SB203580, or siRNA against PARP1 or p38

CRM1, endogenous (from UniProt O14980 1-1071) (other; other documents disagree on this pair)
binding: binds
